Measurements reported in publication PMC8068036, “Synthesis of New Biscoumarin Derivatives, In Vitro Cholinesterase Inhibition, Molecular Modelling and Antiproliferative Effect in A549 Human Lung Carcinoma Cells” (International Journal of Molecular Sciences, 2021).

Settings: classification from PAMPA-BBB Pe
Procedure: The parallel artificial membrane permeability assay (PAMPA) is used as a non-cell-based in vitro assay to predict BBB penetration and is carried out in a coated 96-well membrane filter. In our assays, the filter membrane of the donor plate was coated with PBL (Polar Brain Lipid, Avanti, Denver, CO, USA) in dodecane (4 µL of 20 mg mL^−1 PBL in dodecane), and the acceptor well was filled with 300 µL of phosphate buffered saline (PBS) (pH 7.4; VA). The tested compounds were first dissolved in DMSO, and the resulting mixture was diluted with PBS (pH 7.4) to reach the final concentration (40–100 µM) in the donor well. […] Three hundred microliters of the donor solution (VD) were added to the donor wells, and the donor filter plate was carefully placed onto the acceptor plate to ensure that the coated membrane was “in contact” with both the donor solution and the acceptor buffer. The test compound diffused from the donor well through the polar brain lipid membrane (area = 0.28 cm^2) to the acceptor well. The concentration of the tested compound in both the donor and acceptor wells was assessed after 3, 4, 5, and 6 h of incubation, respectively, in quadruplicate using a UV plate reader Synergy HT (Biotek, Winooski, VT, USA) at the maximum absorption wavelength of each compound. […]

NS(=O)(=O)c1cc(C(=O)O)c(NCc2ccco2)cc1Cl [Furosemide, reference compound]
CNS Predicted Availability: CNS− (CNS−: low BBB permeation predicted with Pe (×10^−6 cm s^−1) < 2.0)
